{"source": "PubChem BioAssay AID1259405, NCATS – 2018", "aim": "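Knock-downs that lift recombinant protein yield in hamster ovary cells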 (primary screen)", "cells": "Chinese hamster CHO-K1 ovary cells with stable secreted eGFP expression", "reagents": "single siRNA against mouse genes, 0.8 pmol siRNA per well (2 µl of 400 nM stock)", "timing": "3 days", "read-out": "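Percent of the per-plate non-targeting control median for intracellular GFP per well by laser scanning cytometry and for cell viability by ATP luminescence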", "scale": "GFP, % of control: higher = more GFP per well, higher productivity; viability (ATP), % of control: higher = more viable cells (more ATP)", "active means": "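Called active when intracellular GFP, relative to negative control, is at or above 120%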", "note": "The whole screen tested about 50,000 reagents; shown is an unselected part. Over the whole deposit, about 4,000 (8%) got an active call. 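Mouse siRNA library applied to hamster cells; one well for each siRNA.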 Reagents against one gene are numbered here."}
{"Gene": "Mgat4a", "siRNA no.": 1, "GFP, % of control": 64.3, "viability (ATP), % of control": 65, "Call": "inactive"}
{"Gene": "Mgat4a", "siRNA no.": 2, "GFP, % of control": 78.2, "viability (ATP), % of control": 102, "Call": "inactive"}
{"Gene": "Mgat4a", "siRNA no.": 3, "GFP, % of control": 120, "viability (ATP), % of control": 112, "Call": "inactive"}
{"Gene": "Dclre1a", "siRNA no.": 1, "GFP, % of control": 65.2, "viability (ATP), % of control": 68.7, "Call": "inactive"}
{"Gene": "Dclre1a", "siRNA no.": 2, "GFP, % of control": 123, "viability (ATP), % of control": 96.4, "Call": "active"}
{"Gene": "Dclre1a", "siRNA no.": 3, "GFP, % of control": 58.1, "viability (ATP), % of control": 44.9, "Call": "inactive"}
{"Gene": "Tmem51", "siRNA no.": 1, "GFP, % of control": 96.3, "viability (ATP), % of control": 72.7, "Call": "inactive"}
{"Gene": "Tmem51", "siRNA no.": 2, "GFP, % of control": 77.4, "viability (ATP), % of control": 69.9, "Call": "inactive"}
{"Gene": "Tmem51", "siRNA no.": 3, "GFP, % of control": 107, "viability (ATP), % of control": 110, "Call": "inactive"}
{"Gene": "Spats2l", "siRNA no.": 1, "GFP, % of control": 32.5, "viability (ATP), % of control": 48.6, "Call": "inactive"}
{"Gene": "Spats2l", "siRNA no.": 2, "GFP, % of control": 56.4, "viability (ATP), % of control": 70.6, "Call": "inactive"}
{"Gene": "Spats2l", "siRNA no.": 3, "GFP, % of control": 58, "viability (ATP), % of control": 48.5, "Call": "inactive"}
{"Gene": "Galnt1", "siRNA no.": 1, "GFP, % of control": 121, "viability (ATP), % of control": 81, "Call": "active"}
{"Gene": "Galnt1", "siRNA no.": 2, "GFP, % of control": 83.7, "viability (ATP), % of control": 138, "Call": "inactive"}
{"Gene": "Galnt1", "siRNA no.": 3, "GFP, % of control": 108, "viability (ATP), % of control": 93.9, "Call": "inactive"}
{"Gene": "Ahr", "siRNA no.": 1, "GFP, % of control": 59.5, "viability (ATP), % of control": 77.8, "Call": "inactive"}
{"Gene": "Ahr", "siRNA no.": 2, "GFP, % of control": 70.6, "viability (ATP), % of control": 70, "Call": "inactive"}
{"Gene": "Ahr", "siRNA no.": 3, "GFP, % of control": 101, "viability (ATP), % of control": 87.3, "Call": "inactive"}
{"Gene": "Ttll8", "siRNA no.": 1, "GFP, % of control": 70.1, "viability (ATP), % of control": 76.7, "Call": "inactive"}
{"Gene": "Ttll8", "siRNA no.": 2, "GFP, % of control": 93, "viability (ATP), % of control": 77.1, "Call": "inactive"}
{"Gene": "Ttll8", "siRNA no.": 3, "GFP, % of control": 65.5, "viability (ATP), % of control": 62.8, "Call": "inactive"}
{"Gene": "Cys1", "siRNA no.": 1, "GFP, % of control": 94.5, "viability (ATP), % of control": 86.1, "Call": "inactive"}
{"Gene": "Cys1", "siRNA no.": 2, "GFP, % of control": 105, "viability (ATP), % of control": 72.7, "Call": "inactive"}
{"Gene": "Cys1", "siRNA no.": 3, "GFP, % of control": 115, "viability (ATP), % of control": 125, "Call": "inactive"}
{"Gene": "Ptprt", "siRNA no.": 1, "GFP, % of control": 67.2, "viability (ATP), % of control": 45.7, "Call": "inactive"}
{"Gene": "Ptprt", "siRNA no.": 2, "GFP, % of control": 42.7, "viability (ATP), % of control": 28.9, "Call": "inactive"}
{"Gene": "Ptprt", "siRNA no.": 3, "GFP, % of control": 77.4, "viability (ATP), % of control": 95.9, "Call": "inactive"}
{"Gene": "Or9r3", "siRNA no.": 1, "GFP, % of control": 39.7, "viability (ATP), % of control": 53.8, "Call": "inactive"}
{"Gene": "Or9r3", "siRNA no.": 2, "GFP, % of control": 72.9, "viability (ATP), % of control": 84.6, "Call": "inactive"}
{"Gene": "Or9r3", "siRNA no.": 3, "GFP, % of control": 19.8, "viability (ATP), % of control": 22.5, "Call": "inactive"}
{"Gene": "Smarca1", "siRNA no.": 1, "GFP, % of control": 97.6, "viability (ATP), % of control": 90.5, "Call": "inactive"}
{"Gene": "Smarca1", "siRNA no.": 2, "GFP, % of control": 99.9, "viability (ATP), % of control": 68.5, "Call": "inactive"}
{"Gene": "Smarca1", "siRNA no.": 3, "GFP, % of control": 111, "viability (ATP), % of control": 52.6, "Call": "inactive"}
{"Gene": "Dcaf5", "siRNA no.": 1, "GFP, % of control": 28.7, "viability (ATP), % of control": 50.4, "Call": "inactive"}
{"Gene": "Dcaf5", "siRNA no.": 2, "GFP, % of control": 80.1, "viability (ATP), % of control": 59.6, "Call": "inactive"}
{"Gene": "Dcaf5", "siRNA no.": 3, "GFP, % of control": 93.7, "viability (ATP), % of control": 99.9, "Call": "inactive"}
{"Gene": "Atp1b4", "siRNA no.": 1, "GFP, % of control": 142, "viability (ATP), % of control": 103, "Call": "active"}
{"Gene": "Atp1b4", "siRNA no.": 2, "GFP, % of control": 34.6, "viability (ATP), % of control": 29.6, "Call": "inactive"}
{"Gene": "Atp1b4", "siRNA no.": 3, "GFP, % of control": 86.1, "viability (ATP), % of control": 74, "Call": "inactive"}
{"Gene": "Tpd52l1", "siRNA no.": 1, "GFP, % of control": 66.4, "viability (ATP), % of control": 76.2, "Call": "inactive"}
{"Gene": "Tpd52l1", "siRNA no.": 2, "GFP, % of control": 92.1, "viability (ATP), % of control": 91.4, "Call": "inactive"}
{"Gene": "Tpd52l1", "siRNA no.": 3, "GFP, % of control": 132, "viability (ATP), % of control": 119, "Call": "active"}
